{"source": "paper PMC4226669", "about": "“Anti-cancer potency of tasquinimod is enhanced via albumin-binding facilitating increased uptake in the tumor microenvironment” (Oncotarget, 2014)", "test_system": "CWR-22Rv1 prostate cancers", "test": "Vascular volume, albumin-Evans Blue accumulation (EPR effect) and growth in CWR-22Rv1 bearing mice treated with tasquinimod", "type": "in vivo, mouse", "method": "To evaluate the potential importance of an EPR effect for enhancing tumor specific tasquinimod uptake and thus anti-cancer potency, albumin retention in plasma and normal tissue vs. prostate cancer was determined. To do this, nude mice bearing CWR-22Rv1 prostate cancers were injected intravenously (IV) with Evans Blue (EB) at a dose (10mg/kg) so that all of the dye is initially bound to albumin within the blood. Twenty-four hours later, the amount of albumin-EB complex retained in plasma vs. accumulated in liver, kidney, or CWR-22Rv1 prostate cancers determined. The results are expressed as concentration of extractable albumin-EB in plasma vs. the specified tissue. These studies document that prostate cancers accumulate a concentration of albumin-EB that is equal to that in the plasma by 24 hours, Figure 3C. When normalized to vascular volume, the albumin-EB accumulation by prostate cancers is more than two fold greater (p<0.05) compared to liver and more than 8 fold greater (p<0.05) compared to kidney, Figure 3C. […] Such continuous treatment with tasquinimod decreased the vascular volume within the cancers by nearly half (p<0.05), Figure 3C. […] When normalized to this decreased vascular volume, the accumulation of albumin-EB 24 hours post IV injection of the dye in cancers is increased (p<0.05) by 60% compared to non-tasquinimod treated hosts, with no change in normalized accumulation in either the kidney or liver, Figure 3C.\nTissue vascular volumes for liver, kidney, and CWR-22Rv1 cancers were determined previously via intravenous infusion of^51 Chromium (Perkin Elmer, Shelton, CT) labeled red blood cells and the result expressed as percent vascular volume as described previously.\nEPR effect was determined using Evans Blue as described previously with the modification that 24 hours after the albumin in the blood of tumor bearing nude mice was labeled via IV injection of Evans Blue (EB) at a dose of 10mg/kg, the animals were anesthetized, blood collected, and then animals were perfused with saline to remove blood from the host tissues before harvesting liver, kidney, and prostate cancer xenograft tissue. The results are expressed as the concentration of EB-labeled albumin retained in the blood or specified tissue."}
{"smiles": "COc1cccc2c1c(O)c(C(=O)N(C)c1ccc(C(F)(F)F)cc1)c(=O)n2C", "note": "[Tasquinimod]", "values": [{"measurement": "Albumin-EB Accumulation 24 hours Post IV injection (Kidney)", "setting": "10mg/kg/day for 30 days", "result": "6.5 ± 0.8", "unit": "µM"}, {"measurement": "Albumin-EB Accumulation 24 hours Post IV injection (Liver)", "setting": "10mg/kg/day for 30 days", "result": "24.8 ± 4.2", "unit": "µM"}, {"measurement": "Albumin-EB Accumulation 24 hours Post IV injection (Plasma)", "setting": "10mg/kg/day for 30 days", "result": "12.8 ± 2.9", "unit": "µM"}, {"measurement": "Albumin-EB Accumulation 24 hours Post IV injection (Prostate Cancer)", "setting": "10mg/kg/day for 30 days", "result": "13.1 ± 2.2", "unit": "µM"}, {"measurement": "Albumin-EB Accumulation Normalized to Vascular Volume (Kidney)", "setting": "10mg/kg/day for 30 days", "result": "0.7±0.2"}, {"measurement": "Albumin-EB Accumulation Normalized to Vascular Volume (Liver)", "setting": "10mg/kg/day for 30 days", "result": "3.1±0.4"}, {"measurement": "Albumin-EB Accumulation Normalized to Vascular Volume (Prostate Cancer)", "setting": "10mg/kg/day for 30 days", "result": "9.4±1.0"}, {"measurement": "Percent Vascular Volume (Kidney)", "setting": "10mg/kg/day for 30 days", "result": "9.6±3.3"}, {"measurement": "Percent Vascular Volume (Liver)", "setting": "10mg/kg/day for 30 days", "result": "8.5±0.6"}, {"measurement": "increase of albumin-EB accumulation in cancers normalized to vascular volume vs non-tasquinimod treated hosts", "setting": "24 hours post IV dye, 10 mg/kg/day for a month", "result": 60, "unit": "%"}]}
